{"source": "patent US9221900B2", "about": "“Methods for identifying safe and functional humanized antibodies” (AC IMMUNE S.A., priority 2010, dated 2015)", "system": "p38MAPK", "experiment": "Phospho-p38MAPK immunofluorescence with microglia marker Iba1", "format": "cell-based, rat", "conditions": "Aβ1-42 oligomers complexed to antibody"}
{"substance": "MABT-IgG1: same antigen binding sequences as MABT on human IgG1 wild-type backbone with full FcγR-binding capacity", "values": [{"measurement": "cells staining positive for phospho-p38MAPK that were Iba1+", "result": "approximately 93%"}]}
{"substance": "MABT: humanized anti-Aβ monoclonal antibody of IgG4 isotype, affinity matured and humanized form of mouse mMABT", "values": [{"measurement": "cells staining positive for phospho-p38MAPK that were Iba1+", "result": "approximately 93%"}]}
